Source: PubChem BioAssay (EPA / NIEHS)
Values joined by “and” are separate entries in the source; they are usually repeats but may differ in a detail not shown here. Equal values may be shown once. The shares of active, inactive and inconclusive entries below differ from those in the screen. Potencies beside an inconclusive call are fits to weak or partial responses and may not hold up. Active and inactive are the calls of the source. Rule for the calls: active = hit-call score of the fitted dose curve at least 0.9, where 1 is the maximum; inconclusive = response in the unintended direction; inactive = score below 0.9.

By UniProt entry, the sequences of proteins in these tests, tags left out. Where a name states a change or a piece, a line headed by the entry shows the natural chain unless it says otherwise.
UniProt P10275: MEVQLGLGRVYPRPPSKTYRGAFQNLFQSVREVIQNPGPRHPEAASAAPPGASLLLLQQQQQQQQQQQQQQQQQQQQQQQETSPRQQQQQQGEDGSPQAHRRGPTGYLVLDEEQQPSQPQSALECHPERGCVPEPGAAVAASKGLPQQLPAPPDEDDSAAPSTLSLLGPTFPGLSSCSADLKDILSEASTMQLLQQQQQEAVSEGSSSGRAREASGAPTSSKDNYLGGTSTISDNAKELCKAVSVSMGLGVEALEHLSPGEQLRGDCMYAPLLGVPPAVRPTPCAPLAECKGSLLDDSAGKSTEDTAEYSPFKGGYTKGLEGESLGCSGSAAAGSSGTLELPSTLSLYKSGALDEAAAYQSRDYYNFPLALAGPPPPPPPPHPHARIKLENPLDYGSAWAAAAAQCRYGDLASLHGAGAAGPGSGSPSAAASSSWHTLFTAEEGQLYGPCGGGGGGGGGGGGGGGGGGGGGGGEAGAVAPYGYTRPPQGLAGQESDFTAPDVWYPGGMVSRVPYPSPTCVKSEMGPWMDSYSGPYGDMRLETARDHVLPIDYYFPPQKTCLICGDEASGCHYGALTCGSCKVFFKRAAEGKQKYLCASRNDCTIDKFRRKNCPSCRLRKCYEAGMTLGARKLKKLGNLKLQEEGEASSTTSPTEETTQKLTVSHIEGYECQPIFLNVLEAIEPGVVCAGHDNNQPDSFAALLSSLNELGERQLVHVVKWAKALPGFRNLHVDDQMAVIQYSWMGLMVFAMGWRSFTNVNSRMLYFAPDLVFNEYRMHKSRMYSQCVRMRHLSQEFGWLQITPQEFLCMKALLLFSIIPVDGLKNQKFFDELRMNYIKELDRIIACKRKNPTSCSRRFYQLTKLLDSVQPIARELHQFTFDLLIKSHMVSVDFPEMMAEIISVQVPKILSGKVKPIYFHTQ
UniProt O75469: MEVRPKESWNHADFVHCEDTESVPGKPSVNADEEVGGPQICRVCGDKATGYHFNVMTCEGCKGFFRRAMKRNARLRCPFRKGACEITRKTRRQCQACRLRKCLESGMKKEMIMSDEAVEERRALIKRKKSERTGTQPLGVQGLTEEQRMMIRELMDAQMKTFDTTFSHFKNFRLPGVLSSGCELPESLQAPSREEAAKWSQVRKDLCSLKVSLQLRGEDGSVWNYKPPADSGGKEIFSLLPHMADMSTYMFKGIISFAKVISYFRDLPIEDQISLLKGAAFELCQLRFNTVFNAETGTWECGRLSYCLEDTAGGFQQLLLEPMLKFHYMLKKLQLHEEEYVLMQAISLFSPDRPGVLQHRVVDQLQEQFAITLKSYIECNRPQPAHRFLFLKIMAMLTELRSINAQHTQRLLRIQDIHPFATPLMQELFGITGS
UniProt P04637, whole entry, looked up: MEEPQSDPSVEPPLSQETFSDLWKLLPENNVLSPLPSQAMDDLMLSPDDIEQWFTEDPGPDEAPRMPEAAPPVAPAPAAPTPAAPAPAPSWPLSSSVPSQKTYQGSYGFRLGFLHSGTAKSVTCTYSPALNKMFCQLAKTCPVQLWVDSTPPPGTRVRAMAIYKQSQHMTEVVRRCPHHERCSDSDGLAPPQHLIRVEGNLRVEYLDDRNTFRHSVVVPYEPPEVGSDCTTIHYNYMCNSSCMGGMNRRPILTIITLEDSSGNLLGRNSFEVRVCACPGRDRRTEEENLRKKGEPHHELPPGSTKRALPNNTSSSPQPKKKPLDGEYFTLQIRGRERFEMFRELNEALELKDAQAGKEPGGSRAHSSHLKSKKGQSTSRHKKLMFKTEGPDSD
UniProt P62508: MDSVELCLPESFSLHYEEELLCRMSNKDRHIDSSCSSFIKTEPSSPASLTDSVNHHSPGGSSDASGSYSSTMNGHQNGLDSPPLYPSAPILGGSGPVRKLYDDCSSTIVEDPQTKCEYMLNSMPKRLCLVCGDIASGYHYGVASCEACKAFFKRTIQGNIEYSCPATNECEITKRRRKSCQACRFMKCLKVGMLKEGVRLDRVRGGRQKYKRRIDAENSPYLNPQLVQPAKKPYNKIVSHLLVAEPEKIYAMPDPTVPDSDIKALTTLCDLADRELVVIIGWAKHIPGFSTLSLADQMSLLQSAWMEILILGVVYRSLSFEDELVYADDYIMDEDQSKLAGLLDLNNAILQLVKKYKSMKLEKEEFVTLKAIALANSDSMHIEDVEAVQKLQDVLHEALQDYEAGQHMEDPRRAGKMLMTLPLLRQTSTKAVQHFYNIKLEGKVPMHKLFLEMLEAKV
UniProt Q96RI1: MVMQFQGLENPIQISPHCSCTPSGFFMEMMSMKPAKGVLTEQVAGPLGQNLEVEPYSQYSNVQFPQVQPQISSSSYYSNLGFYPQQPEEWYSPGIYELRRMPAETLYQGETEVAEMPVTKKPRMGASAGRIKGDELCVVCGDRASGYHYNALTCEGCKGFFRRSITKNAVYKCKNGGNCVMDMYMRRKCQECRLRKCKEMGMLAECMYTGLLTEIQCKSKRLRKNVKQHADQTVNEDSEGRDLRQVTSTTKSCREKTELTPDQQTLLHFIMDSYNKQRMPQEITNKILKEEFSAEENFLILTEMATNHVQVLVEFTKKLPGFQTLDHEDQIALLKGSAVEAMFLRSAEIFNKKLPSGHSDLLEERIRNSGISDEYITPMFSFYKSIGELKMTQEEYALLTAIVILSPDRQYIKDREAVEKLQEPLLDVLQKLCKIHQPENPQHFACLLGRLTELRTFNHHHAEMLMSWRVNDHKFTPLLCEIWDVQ
UniProt Q03181: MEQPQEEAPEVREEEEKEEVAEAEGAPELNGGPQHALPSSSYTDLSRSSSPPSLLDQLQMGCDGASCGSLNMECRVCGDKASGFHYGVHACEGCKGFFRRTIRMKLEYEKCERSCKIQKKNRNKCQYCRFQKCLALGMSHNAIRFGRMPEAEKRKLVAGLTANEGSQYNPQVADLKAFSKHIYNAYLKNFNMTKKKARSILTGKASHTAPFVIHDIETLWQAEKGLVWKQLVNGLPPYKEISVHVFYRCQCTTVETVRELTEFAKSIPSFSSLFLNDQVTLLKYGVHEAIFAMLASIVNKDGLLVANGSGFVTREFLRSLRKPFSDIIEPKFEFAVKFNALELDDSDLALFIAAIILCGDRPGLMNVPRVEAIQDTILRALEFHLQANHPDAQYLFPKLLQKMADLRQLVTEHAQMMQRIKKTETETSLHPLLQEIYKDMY
UniProt P19793: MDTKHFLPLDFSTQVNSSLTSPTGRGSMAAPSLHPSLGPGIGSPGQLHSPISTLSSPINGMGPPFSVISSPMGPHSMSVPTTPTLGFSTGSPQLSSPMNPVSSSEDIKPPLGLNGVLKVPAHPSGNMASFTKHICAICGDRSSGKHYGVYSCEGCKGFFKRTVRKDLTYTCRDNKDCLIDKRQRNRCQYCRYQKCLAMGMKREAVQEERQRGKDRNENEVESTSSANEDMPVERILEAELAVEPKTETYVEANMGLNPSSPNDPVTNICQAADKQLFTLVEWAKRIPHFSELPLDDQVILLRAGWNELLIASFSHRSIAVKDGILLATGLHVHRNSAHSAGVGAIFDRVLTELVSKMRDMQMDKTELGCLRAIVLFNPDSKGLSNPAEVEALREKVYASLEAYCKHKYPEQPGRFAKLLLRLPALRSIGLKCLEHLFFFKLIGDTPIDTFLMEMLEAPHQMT
UniProt P19785, whole entry, looked up: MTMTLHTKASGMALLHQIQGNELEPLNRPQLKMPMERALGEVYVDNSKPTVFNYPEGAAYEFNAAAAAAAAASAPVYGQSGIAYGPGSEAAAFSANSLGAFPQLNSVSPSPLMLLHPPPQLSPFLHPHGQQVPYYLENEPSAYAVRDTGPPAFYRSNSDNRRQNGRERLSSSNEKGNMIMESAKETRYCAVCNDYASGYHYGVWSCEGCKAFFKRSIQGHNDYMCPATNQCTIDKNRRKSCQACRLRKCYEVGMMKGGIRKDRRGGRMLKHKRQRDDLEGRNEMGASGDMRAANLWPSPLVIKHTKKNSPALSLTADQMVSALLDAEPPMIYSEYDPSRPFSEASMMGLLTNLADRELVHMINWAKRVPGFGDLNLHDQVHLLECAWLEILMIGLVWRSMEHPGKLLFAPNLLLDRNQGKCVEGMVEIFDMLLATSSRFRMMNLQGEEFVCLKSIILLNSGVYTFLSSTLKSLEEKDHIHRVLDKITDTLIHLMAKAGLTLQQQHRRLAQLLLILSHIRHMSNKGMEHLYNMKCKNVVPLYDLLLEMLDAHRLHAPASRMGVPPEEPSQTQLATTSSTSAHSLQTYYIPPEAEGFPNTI
UniProt P11473: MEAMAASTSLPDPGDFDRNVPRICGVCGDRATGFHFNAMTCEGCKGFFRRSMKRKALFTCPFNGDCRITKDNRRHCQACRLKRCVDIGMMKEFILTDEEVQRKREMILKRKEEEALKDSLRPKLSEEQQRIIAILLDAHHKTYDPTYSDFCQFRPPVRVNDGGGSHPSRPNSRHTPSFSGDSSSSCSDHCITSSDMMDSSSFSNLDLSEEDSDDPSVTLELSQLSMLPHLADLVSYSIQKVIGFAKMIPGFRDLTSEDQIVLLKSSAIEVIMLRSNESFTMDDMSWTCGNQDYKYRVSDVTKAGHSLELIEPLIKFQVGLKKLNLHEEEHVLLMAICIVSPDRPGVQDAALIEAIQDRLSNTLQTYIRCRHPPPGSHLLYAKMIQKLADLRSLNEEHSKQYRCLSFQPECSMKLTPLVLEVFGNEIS
UniProt P03372, whole entry, looked up: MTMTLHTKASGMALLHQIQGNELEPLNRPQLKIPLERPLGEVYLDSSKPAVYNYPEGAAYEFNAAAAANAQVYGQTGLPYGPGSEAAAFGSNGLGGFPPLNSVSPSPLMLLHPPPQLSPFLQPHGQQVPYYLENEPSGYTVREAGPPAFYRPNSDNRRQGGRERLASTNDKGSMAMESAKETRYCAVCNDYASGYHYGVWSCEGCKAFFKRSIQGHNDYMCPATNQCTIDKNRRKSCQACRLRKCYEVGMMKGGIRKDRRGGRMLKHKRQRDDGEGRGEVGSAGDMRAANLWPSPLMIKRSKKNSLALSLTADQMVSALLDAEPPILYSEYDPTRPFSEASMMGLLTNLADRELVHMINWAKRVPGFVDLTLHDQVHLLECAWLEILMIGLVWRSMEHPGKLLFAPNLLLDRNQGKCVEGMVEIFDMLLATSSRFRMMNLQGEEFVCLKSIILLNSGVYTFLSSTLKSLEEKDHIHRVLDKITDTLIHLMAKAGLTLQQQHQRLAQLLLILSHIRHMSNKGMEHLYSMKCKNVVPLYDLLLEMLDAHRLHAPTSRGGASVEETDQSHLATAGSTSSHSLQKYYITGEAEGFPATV

Assays:
[1] = biological target: Androgen receptor (Homo sapiens) (UniProt P10275); assay: ATG_AR_TRANS: Attagene TRANS-FACTORIAL HepG2 Assay for human Androgen Receptor (AR) (AID 2282973); conditions: HepG2 Attagene TRANS-FACTORIAL AR reporter transcription
Outline: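 Chimeric nuclear receptor–Gal4 activity was assessed in human HepG2 hepatocytes after 24 h chemical dosing. Induced reporter mRNA was detected via labelled RT-PCR fragments on capillary electrophoresis, and gain of signal was analysed against DMSO.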

[2] = biological target: Nuclear receptor subfamily 1 group I member 2 (Homo sapiens) (UniProt O75469); assay: ATG_PXR_TRANS: Attagene TRANS-FACTORIAL HepG2 Assay for human Pregnane X Receptor (PXR) (AID 2283008)
Outline: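 HepG2 transfected (FuGene 6) with GAL4-UAS reporter units + PXR-Gal4 chimera; dosed 24 h. Total RNA → oligo(dT) RT → PCR → 6-FAM primer extension → HpaI cut → CE. Gain-of-signal vs DMSO.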

[3] = biological target: Cellular tumor antigen p53 (Homo sapiens) (UniProt P04637); assay: TOX21_p53_BLA_p5_ratio: Tox21 HCT-116 p53 Agonism Beta-lactamase Assay, Ratio, Phase 5 (AID 2283599)
Outline: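 Beta-lactamase reporter ratio (blue 460 nm over green 530 nm, 405 nm excitation) after 2 h CCF4-AM loading, in HCT-116 cells exposed 16 h at 37 C to compounds pinned at 217-fold dilution. Increases relative to DMSO baseline scored.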

[4] = TOX21_p53_BLA_p5_viability: Viability Assessment in the Tox21 HCT-116 p53 Agonism Beta-lactamase Assay, Phase 5 (AID 2283600)
Outline: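 Here cell health was gauged by ATP levels in wells holding 4000 cells, each treated 16 h with DMSO-delivered compounds at 217-fold dilution; reduced luminescence marked toxicity.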

[5] = biological target: Estrogen-related receptor gamma (Homo sapiens) (UniProt P62508); assay: ATG_ERRg_TRANS: Attagene TRANS-FACTORIAL HepG2 Assay for human Estrogen-Related Receptor gamma (ERRg) (AID 2282977); conditions: HepG2 Attagene TRANS reporter, ERRg transactivation;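 note: hits increase reporter signal over DMSO so potencies reflect activators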
Outline: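 Exogenous NR-Gal4 chimera activity was assessed in HepG2 cells bearing transfected GAL4-UAS reporters. After 24 h dosing, total RNA underwent RT-PCR, fluorescent primer extension and HpaI digestion before capillary electrophoresis, with gain of signal scored against DMSO.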

[6] = biological target: Bile acid receptor (Homo sapiens) (UniProt Q96RI1); assay: ATG_FXR_TRANS: Attagene TRANS-FACTORIAL HepG2 Assay for Farnesoid X Receptor (FXR) (AID 2282979); conditions: HepG2 Attagene TRANS FXR-GAL4 reporter transcription;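 note: hits raise reporter mRNA above DMSO so AC50 marks FXR activation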
Outline: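 After 24 h chemical treatment of transfected HepG2 cells, GAL4-UAS reporter transcripts driven by an exogenous FXR-GAL4 fusion were measured by RT-PCR and capillary electrophoresis. Increases over DMSO were fitted.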

[7] = ATG_M_06_TRANS: Attagene TRANS-FACTORIAL HepG2 Assay for M06 Transcription Factor (Internal Marker) (AID 2282983); conditions: HepG2 Attagene TRANS M06 internal marker reporter;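 for AC50: potency for rise in reporter mRNA above DMSO baseline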
Outline: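 Multi-reporter-transfected HepG2, 24 h treatment; reporter transcripts quantified via RT-PCR, primer-extension labelling and CE. DMSO-normalized gain-of-signal fit.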

[8] = biological target: human Peroxisome Proliferator-activated Receptor delta (PPARd), PPARD (gene 5467) (UniProt Q03181); assay: ATG_PPARd_TRANS: Attagene TRANS-FACTORIAL HepG2 Assay for human Peroxisome Proliferator-activated Receptor delta (PPARd) (AID 2283002)
Outline: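 Transient HepG2 transfection (multiple GAL4-UAS RTUs, chimeric receptor-Gal4); 24 h dosing; total RNA → oligo(dT) RT → PCR → 6-FAM primer extension → HpaI cut → CE. Positive direction vs DMSO.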

[9] = biological target: Retinoic acid receptor RXR-alpha (Homo sapiens) (UniProt P19793); assay: ATG_RXRa_TRANS: Attagene TRANS-FACTORIAL HepG2 Assay for human Retinoid X Receptor alpha (RXRa) (AID 2283012)
Outline: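 Chimeric NR-GAL4 trans-activation in HepG2, 24 h treatment; reporter transcripts quantified by fluorescence on capillary electrophoresis, analysed for upward change from DMSO.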

[10] = biological target: mouse Estrogen Receptor alpha (Era), Esr1 (gene 13982) (UniProt P19785); assay: NVS_NR_mERa: NovaScreen (NVS) Nuclear Receptor Binding Assay for mouse Estrogen Receptor alpha (Era) (AID 2283378);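 note: hit means loss of bound radioligand signal relative to DMSO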
Outline: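 Measurements come from scintillation counting after filtration, taken 18 hours after chemicals were added to a cell-free mouse Era preparation with radioligand. Screening was duplicate at 25 uM, with concurrent positive and negative controls and confirmatory concentration series for actives.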

[11] = ATG_XTT_Cytotoxicity: Cytotoxicity Assessment in the Attagene TRANS-FACTORIAL HepG2 Assay (AID 2283584);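 for AC50: XTT signal for cell number as viability in transfected HepG2 cells; cells exposed to compound for 24 h before reading; active means loss of viability signal versus DMSO baseline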
Outline: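 24 h chemical exposure of reporter-transfected HepG2; XTT signal loss vs DMSO indicates cytotoxicity.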

[12] = biological target: Cellular tumor antigen p53 (Homo sapiens) (UniProt P04637); assay: TOX21_p53_BLA_p2_ratio: Tox21 HCT-116 p53 Agonism Beta-lactamase Assay, Ratio, Phase 2 (AID 2283592)
Outline: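 DMSO-normalized, positive-direction endpoint derived from the 460 nm/530 nm FRET ratio in HCT116 p53 beta-lactamase reporter cells exposed 16 h at 37C and loaded with CCF4-AM for 2 h.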

[13] = biological target: Cellular tumor antigen p53 (Homo sapiens) (UniProt P04637); assay: TOX21_p53_BLA_p3_ratio: Tox21 HCT-116 p53 Agonism Beta-lactamase Assay, Ratio, Phase 3 (AID 2283596)
Outline: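 Cells were seeded at 4000/well, rested 5 h at 37C, then dosed with DMSO compound solutions (217-fold dilution) for 16 h. CCF4-AM substrate was loaded for 2 h at room temperature, and the 460/530 nm emission ratio was fitted for gain of signal versus DMSO.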

[14] = biological target: Cellular tumor antigen p53 (Homo sapiens) (UniProt P04637); assay: TOX21_p53_BLA_p4_ratio: Tox21 HCT-116 p53 Agonism Beta-lactamase Assay, Ratio, Phase 4 (AID 2283601)
Outline: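 Signal is the blue/green (460nm/530nm) ratio of cleaved versus uncleaved CCF4-AM substrate, read after 2 h substrate loading. Cells were HCT116 carrying the p53-responsive beta-lactamase reporter, dosed 16 h at 37C, 5% CO2; CellTiter-Glo measured in parallel.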

[15] = biological target: Retinoic acid receptor RXR-alpha (Homo sapiens) (UniProt P19793); assay: OT_NURR1_NURR1RXRa_0480: Odyssey Thera (OT) 8-hour HEK293T Protein Complementation Assay for Nurr1/retinoid X receptor (RXR) (AID 2283385)
Outline: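 Gain in fluorescent complementation signal over DMSO, measured 8 hours after chemical dosing of human kidney HEK293T cells, indicated enhanced Nurr1–RXRα association.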

[16] = ACEA_ER_AUC_viability: ACEA Biosciences xCELLigence Real-Time Cell Analysis on Estrogen Receptor Agonism for Viability (AID 2283782);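 note: hit means loss of impedance signal meaning reduced cell growth or viability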
Outline: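 Viability endpoint: reduced impedance area under the curve relative to DMSO, recorded by real-time electrode sensing over ~80 h of continuous exposure. Duplicate plates of T47D in hormone-depleted medium; eight concentrations, 1:4 dilutions, 100 uM maximum.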

[17] = ATG_M_32_TRANS: Attagene TRANS-FACTORIAL HepG2 Assay for M32 Transcription Factor (Internal Marker) (AID 2282984); conditions: HepG2 Attagene TRANS M32 internal marker reporter
Outline: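 Cell-based TRANS-format assay in HepG2: exogenous chimeric GAL4 reporter units transiently expressed, compounds applied 24 h. Reporter mRNA detected by RT-PCR plus capillary electrophoresis; this readout is an internal background marker.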

[18] = biological target: human Vitamin D Receptor (VDR), VDR (gene 7421) (UniProt P11473); assay: ATG_VDR_TRANS: Attagene TRANS-FACTORIAL HepG2 Assay for human Vitamin D Receptor (VDR) (AID 2283022)
Outline: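 Multiplexed TRANS reporter in HepG2; 24 h treatment; reporter mRNA by RT-PCR plus capillary electrophoresis; upregulation scored relative to DMSO.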

[19] = biological target: Estrogen receptor (Homo sapiens) (UniProt P03372); assay: NVS_NR_hER: NovaScreen (NVS) Nuclear Receptor Binding Assay for human Estrogen Receptor (ER) (AID 2283348)
Outline: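 Cell-free MCF7-derived ER preparation, specific radioligand displaced by test compound, read by scintillation counting 18 h post-dosing. Duplicate single-point 25 uM screen, then concentration-response confirmation; DMSO baseline.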

[20] = biological target: Retinoic acid receptor RXR-alpha (Homo sapiens) (UniProt P19793); assay: OT_NURR1_NURR1RXRa_1440: Odyssey Thera (OT) 24-hour HEK293T Protein Complementation Assay for Nurr1/retinoid X receptor (RXR) (AID 2283386)
Outline: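 Cell-based binding reporter: HEK293T cells, 24 h exposure, fluorescence-detected fragment complementation, DMSO as baseline.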

Measured: AC50

O=[N+]([O-])c1cc(N(CCO)CCO)ccc1NCCO
inactive: [4]
inconclusive: [1] 0.0963 µM | [2] 23.7 µM | [3] 46.1 µM and 46 µM

CCCCCCCCCCCC[N+](C)(C)CCCCCCCCCCCC
active: [11] 62.4 µM | [12] 41.4 µM | [13] 66.5 µM | [3] 56.6 µM | [4] 37 µM | [14] 32.3 µM
inconclusive: [6] 100 µM | [10] 8.96 µM
inactive: [5] | [7] | [8] | [9]

CCC[Si](OC)(OC)OC
inconclusive: [1] 100 µM | [5] 100 µM | [6] 182 µM | [12] 46.1 µM | [4] 46.1 µM | [16] 50 µM
inactive: [15]

C=CCOC(=O)/C=C\C(=O)OCC=C
inactive: [1] | [17]
inconclusive: [6] 101 µM | [7] 1.46 µM | [11] 102 µM

CCOC(=O)[C@H](O)[C@@H](O)C(=O)OCC
active: [16] 50 µM
inactive: [1] | [9] | [18] | [11]
inconclusive: [6] 100 µM

C=C(C)C(=O)OCC(O)COc1ccc(C(C)(C)c2ccc(OCC(O)COC(=O)C(=C)C)cc2)cc1 (centres undefined)
inconclusive: [6] 180 µM | [7] 182 µM | [19] 0.119 µM | [10] 25 µM
inactive: [4]
active: [2] 6.93 µM | [13] 86.7 µM

CC(=O)OC(C)(C)C1CC=C(C)CC1 (centres undefined)
active: [16] 79 µM
inactive: [17] | [4]
inconclusive: [5] 0.332 µM | [7] 100 µM | [8] 100 µM | [18] 100 µM | [19] 25 µM | [10] 25 µM | [15] 75.3 µM | [20] 91.6 µM | [12] 46.1 µM and 45.3 µM | [3] 46.1 µM | [4] 82.4 µM | [14] 46.1 µM

COc1nccnc1CC(C)C
inconclusive: [5] 170 µM | [6] 175 µM | [17] 100 µM | [9] 100 µM
inactive: [2]

Cc1ccc(N=Nc2c(O)ccc3ccccc23)c(C)c1
inconclusive: [1] 50 µM | [6] 50 µM | [18] 50 µM
inactive: [7]

c1cc(N(CC2CO2)CC2CO2)ccc1OCC1CO1 (centres undefined)
inactive: [2]
inconclusive: [17] 178 µM | [9] 100 µM | [11] 100 µM

CC(Cc1ccc(O)c(O)c1)C(C)Cc1ccc(O)c(O)c1 (centres undefined)
active: [2] 6.87 µM | [19] 0.705 µM | [10] 1.82 µM | [13] 75.1 µM | [3] 81.3 µM | [14] 75.5 µM | [16] 27.6 µM
inactive: [17] | [20]
inconclusive: [15] 90.7 µM

O=C(O)CN(CCCN(CC(=O)O)CC(=O)O)CC(=O)O
inconclusive: [1] 13.2 µM

c1cc(C(c2ccc(OCC3CO3)cc2)c2ccc(OCC3CO3)cc2)ccc1OCC1CO1 (centres undefined)
inconclusive: [1] 35.5 µM | [6] 144 µM | [9] 100 µM | [12] 69.8 µM | [13] 46.1 µM | [3] 46.1 µM | [14] 82.5 µM
inactive: [17] | [8] | [18]

CCCCCOC(C)=O
inconclusive: [6] 100 µM | [2] 100 µM | [16] 50 µM
inactive: [8] | [11]

c1ccc2c(c1)-c1ccc3ccc4cccc5cc-2c1c3c45
inconclusive: [1] 50 µM | [9] 91.2 µM
inactive: [2] | [16]

Clc1sc(Cl)c(Cl)c1Cl
inconclusive: [5] 180 µM | [9] 100 µM | [18] 100 µM
inactive: [2]
